The test concerns the target T1, FLAG-HA-tagged RBM33 (UniProt Q96EV2).
T1 sequence: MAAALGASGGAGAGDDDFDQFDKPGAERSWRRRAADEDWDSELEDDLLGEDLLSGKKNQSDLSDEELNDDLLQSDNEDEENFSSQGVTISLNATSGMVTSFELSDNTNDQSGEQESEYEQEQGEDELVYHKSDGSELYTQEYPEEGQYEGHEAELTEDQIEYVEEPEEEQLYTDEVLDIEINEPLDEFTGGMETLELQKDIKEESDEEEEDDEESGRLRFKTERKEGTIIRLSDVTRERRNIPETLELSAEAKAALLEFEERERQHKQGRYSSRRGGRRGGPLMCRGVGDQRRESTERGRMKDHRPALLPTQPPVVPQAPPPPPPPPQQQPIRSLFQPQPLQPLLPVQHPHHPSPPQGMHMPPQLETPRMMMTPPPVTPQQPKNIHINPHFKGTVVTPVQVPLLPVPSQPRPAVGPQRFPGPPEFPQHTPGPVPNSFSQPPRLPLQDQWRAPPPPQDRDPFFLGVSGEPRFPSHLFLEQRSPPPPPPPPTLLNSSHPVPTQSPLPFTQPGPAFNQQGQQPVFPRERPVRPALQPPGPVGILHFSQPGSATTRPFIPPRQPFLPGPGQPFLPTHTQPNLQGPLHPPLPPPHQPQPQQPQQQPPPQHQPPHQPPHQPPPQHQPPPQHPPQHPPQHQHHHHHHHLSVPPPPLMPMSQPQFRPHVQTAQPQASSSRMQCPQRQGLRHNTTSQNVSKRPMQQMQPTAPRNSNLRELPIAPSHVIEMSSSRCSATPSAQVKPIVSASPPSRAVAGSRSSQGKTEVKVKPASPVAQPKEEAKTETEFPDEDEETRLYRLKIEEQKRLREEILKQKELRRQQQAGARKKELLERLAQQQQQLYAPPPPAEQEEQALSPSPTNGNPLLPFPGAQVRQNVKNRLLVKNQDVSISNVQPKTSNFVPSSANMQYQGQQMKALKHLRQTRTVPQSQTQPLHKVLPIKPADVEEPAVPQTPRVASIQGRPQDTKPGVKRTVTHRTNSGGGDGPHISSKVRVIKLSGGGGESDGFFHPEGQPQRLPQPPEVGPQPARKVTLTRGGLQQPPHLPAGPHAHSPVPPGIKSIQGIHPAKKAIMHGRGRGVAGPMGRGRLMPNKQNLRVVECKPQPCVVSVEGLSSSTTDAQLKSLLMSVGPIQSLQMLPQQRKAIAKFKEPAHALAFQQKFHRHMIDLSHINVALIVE
Description: affinity purification with mass spectrometry; FLAG M2 antibody on Dynabeads Protein G; lysates of HCT116 cells stably expressing FH-RBM33 or empty vector, with 20 µg/mL RNase A, 2 h at 4°C; 50 mM Tris-HCl pH 7.5, 150 mM NaCl, 1% NP-40, 0.1% sodium deoxycholate; eluted with 3× FLAG peptide; LC-MS/MS, triplicate.

Sequences of proteins named here, by UniProt entry; tags and fusion partners are left off.
UniProt Q13838: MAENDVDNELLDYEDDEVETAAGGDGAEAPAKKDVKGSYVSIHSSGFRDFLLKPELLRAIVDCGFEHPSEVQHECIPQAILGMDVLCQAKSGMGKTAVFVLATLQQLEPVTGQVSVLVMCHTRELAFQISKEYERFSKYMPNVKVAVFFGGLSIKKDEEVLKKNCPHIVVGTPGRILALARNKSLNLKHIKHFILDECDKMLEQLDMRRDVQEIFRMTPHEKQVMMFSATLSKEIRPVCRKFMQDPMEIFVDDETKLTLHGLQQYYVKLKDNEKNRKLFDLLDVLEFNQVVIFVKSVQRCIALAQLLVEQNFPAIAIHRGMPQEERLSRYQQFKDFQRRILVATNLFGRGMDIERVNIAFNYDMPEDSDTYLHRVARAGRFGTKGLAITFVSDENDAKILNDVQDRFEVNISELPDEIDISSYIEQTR

No constants are given. Whether binding was seen depends on the method and setting. Binding seen in cells or lysates may run through a third protein. These calls come from enrichment with a bait or labelling near it, and not all partners need be listed. Tags and fused reporters may be left off the sequences shown.

Consider UAP56 (from UniProt Q13838 1-428), for which the binding entry is reported as “binds”.

B1: THOC6 (protein, UniProt Q86W42 1-341)
chain: MERAVPLAVPLGQTEVFQALQRLHMTIFSQSVSPCGKFLAAGNNYGQIAIFSLSSALSSEAKEESKKPVVTFQAHDGPVYSMVSTDRHLLSAGDGEVKAWLWAEMLKKGCKELWRRQPPYRTSLEVPEINALLLVPKENSLILAGGDCQLHTMDLETGTFTRVLRGHTDYIHCLALRERSPEVLSGGEDGAVRLWDLRTAKEVQTIEVYKHEECSRPHNGRWIGCLATDSDWMVCGGGPALTLWHLRSSTPTTIFPIRAPQKHVTFYQDLILSAGQGRCVNQWQLSGELKAQVPGSSPGLLSLSLNQQPAAPECKVLTAAGNSCRVDVFTNLGYRAFSLSF
Take B1: the binding entry is recorded as “binds”.

The values above are taken from PMC9186391.
